Results are given in words; binding and its absence hold for the method and conditions named. Some results given as binding are weak or reduced against the parent protein; the word gives no strength.
How the values were obtained:
[1] = biological target: Factor inhibiting hypoxia inducible factor (FIH) (UniProt Q9NWT6); test: crystal structure; peptide (2 mM final) soaked for 14 h into preformed FIH.zinc(II).NOG crystals in crystallisation buffer with 20 % (v/v) glycerol; both purified
[2] = biological target: Factor inhibiting hypoxia inducible factor (FIH) (UniProt Q9NWT6); test: crystal structure; co-crystallisation of FIH with Zn(II), NOG and the peptide; vapor diffusion; both purified

Protein sequences, listed by entry. Tags and fused reporters are not part of them. Residues count along the entry.
UniProt Q9NWT6: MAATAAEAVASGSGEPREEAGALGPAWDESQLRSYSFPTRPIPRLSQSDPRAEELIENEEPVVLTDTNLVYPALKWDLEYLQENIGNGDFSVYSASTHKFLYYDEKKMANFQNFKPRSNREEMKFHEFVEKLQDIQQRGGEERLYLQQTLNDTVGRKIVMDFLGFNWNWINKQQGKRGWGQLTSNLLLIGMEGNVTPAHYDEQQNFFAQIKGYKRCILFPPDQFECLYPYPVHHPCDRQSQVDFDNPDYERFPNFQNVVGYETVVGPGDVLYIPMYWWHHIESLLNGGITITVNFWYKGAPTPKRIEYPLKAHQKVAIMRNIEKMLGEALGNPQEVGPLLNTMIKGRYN
TRPV3 (220-246) peptide (Q8NET8, residues 220-246): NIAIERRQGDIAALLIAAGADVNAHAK
TRPV3 (229-255) peptide (Q8NET8, residues 229-255): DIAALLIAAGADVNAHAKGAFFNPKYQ

| Substance | binding [1] | binding [2] |
| --- | --- | --- |
| TRPV3 (220-246) peptide (from UniProt Q8NET8 220-246) | binds |  |
| TRPV3 (229-255) peptide (from UniProt Q8NET8 229-255) |  | binds |
